The inconclusive results got no clear call from the source. A potency beside an inconclusive call is a rough fit, not a confirmed value.
Biological target: Histone acetyltransferase KAT2A (Homo sapiens) (UniProt Q92830)
Assay: qHTS Assay for Inhibitors of GCN5L2: Hit confirmation
Conditions: GCN5L2 HAT, ThioGlo1 CoA fluorescence, 20 min; active means well fitted inhibition curve with a large enough effect; inconclusive means small, poorly fitted or top-dose-only effect, or another doubt; inactive means no such curve, though single readings can be large or run the other way
From the text: Histone acetyltransferase (HAT) enzymes transfer a […] group from acetyl-coenzyme A to the epsilon-amino group of conserved lysine residues of N-terminal histone tails. Acetylation results in charge neutralization of this positively charged amino acid, decreasing interactions with the […] backbone and making the DNA more accessible for transcription. HATs have been recognized as an emerging drug target for treatment of cancer, diabetes, asthma, chronic obstructive pulmonary disease, cardiac disease, and viral infection. […] A quantitative high throughput screen was developed to identify small molecule inhibitors. […] Yasgar, et al. Compound Management for Quantitative High-Throughput Screening. […] Inglese, et al. Quantitative high-throughput screening: a titration-based approach that efficiently identifies biological activities in large chemical libraries. […]
To each well of a 1,536w plate, 3ul of GCN5L2 (final concentration 20nM, in 50mM HEPES, 0.1mM EDTA (pH 7.5), 0.01% Tween-20 buffer) are added using a Kalypsys dispenser. […] Plates are read immediately on the ViewLux (PerkinElmer) (Ex340nm/Em540nm) for a 0 min read, incubated for 20 min at room temperature, and read again on the ViewLux with the same settings. The initial read was carried out to identify compounds that are potentially fluorescent.

The chains behind the UniProt entries cited, without tags or fusion partners.
UniProt Q92830, whole entry, looked up: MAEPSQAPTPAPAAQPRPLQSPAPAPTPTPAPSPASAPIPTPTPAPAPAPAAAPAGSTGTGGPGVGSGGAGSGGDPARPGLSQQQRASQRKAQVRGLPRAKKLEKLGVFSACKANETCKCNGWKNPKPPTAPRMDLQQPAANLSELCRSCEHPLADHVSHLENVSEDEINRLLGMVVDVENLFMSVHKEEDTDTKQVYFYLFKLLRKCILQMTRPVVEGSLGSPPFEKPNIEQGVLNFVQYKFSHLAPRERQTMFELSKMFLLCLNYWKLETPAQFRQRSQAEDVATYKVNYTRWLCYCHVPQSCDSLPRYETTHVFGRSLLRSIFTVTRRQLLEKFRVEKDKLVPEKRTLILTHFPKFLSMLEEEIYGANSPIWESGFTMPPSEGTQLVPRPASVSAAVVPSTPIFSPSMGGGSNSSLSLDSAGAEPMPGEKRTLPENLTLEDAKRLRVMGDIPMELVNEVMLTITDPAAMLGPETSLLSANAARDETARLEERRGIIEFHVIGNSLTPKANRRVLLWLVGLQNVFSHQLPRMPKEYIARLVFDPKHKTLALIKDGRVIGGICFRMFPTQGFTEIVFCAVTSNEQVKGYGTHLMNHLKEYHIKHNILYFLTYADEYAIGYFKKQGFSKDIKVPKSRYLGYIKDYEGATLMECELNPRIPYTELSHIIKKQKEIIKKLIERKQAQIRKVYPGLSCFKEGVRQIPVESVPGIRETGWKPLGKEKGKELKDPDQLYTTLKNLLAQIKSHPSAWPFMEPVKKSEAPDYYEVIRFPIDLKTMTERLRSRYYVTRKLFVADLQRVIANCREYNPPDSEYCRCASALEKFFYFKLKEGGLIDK

Cc1cc(N2C(=O)C(O)=C(C(=O)c3cc4ccccc4o3)C2c2cccc(Br)c2)no1 (stereo unspecified)
Potency: inconclusive: 11.5 µM [inhibitor, full curve]
